The record followed here is article PMC11672691.

Protein sequences, listed by entry. Tags and fused reporters are not part of them. Residues count along the entry.
UniProt Q9Y4W6, residues 67-797: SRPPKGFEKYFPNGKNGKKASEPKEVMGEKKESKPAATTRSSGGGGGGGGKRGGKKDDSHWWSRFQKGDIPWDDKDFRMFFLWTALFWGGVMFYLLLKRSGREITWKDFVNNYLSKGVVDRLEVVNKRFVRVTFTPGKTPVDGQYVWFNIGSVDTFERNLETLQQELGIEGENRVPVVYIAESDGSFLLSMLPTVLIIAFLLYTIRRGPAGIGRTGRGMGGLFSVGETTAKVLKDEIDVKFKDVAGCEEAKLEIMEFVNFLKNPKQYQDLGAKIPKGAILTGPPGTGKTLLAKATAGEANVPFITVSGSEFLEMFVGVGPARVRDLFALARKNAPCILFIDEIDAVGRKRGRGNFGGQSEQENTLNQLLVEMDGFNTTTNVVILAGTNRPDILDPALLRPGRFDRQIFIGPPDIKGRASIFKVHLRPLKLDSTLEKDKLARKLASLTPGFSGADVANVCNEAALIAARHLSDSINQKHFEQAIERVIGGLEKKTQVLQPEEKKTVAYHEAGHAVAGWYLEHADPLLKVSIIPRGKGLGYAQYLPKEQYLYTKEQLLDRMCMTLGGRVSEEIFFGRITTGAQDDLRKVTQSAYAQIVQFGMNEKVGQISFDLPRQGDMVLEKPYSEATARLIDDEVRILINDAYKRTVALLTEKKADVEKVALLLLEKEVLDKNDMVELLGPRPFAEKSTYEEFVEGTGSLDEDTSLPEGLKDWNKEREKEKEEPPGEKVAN

This test has as its target T1, OCIAD1_(FLAG) (ovarian cancer immunoreactive antigen domain-containing protein 1, FLAG-tagged) (human) (UniProt Q9NX40).
T1 sequence: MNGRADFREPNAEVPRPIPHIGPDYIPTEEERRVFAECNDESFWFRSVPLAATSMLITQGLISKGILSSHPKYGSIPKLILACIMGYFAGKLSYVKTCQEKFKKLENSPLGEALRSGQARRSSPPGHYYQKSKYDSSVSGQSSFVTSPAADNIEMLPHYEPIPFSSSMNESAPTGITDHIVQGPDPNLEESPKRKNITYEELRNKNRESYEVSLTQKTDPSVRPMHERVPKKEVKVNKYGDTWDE
Briefly: affinity purification with mass spectrometry; mitochondria of HEK293 cells expressing OCIAD1_(FLAG) or an empty vector, solubilised in 1% digitonin buffer (150 mM NaCl, 10% glycerol, 1 mM EDTA, 50 mM Tris-HCl pH 7.4), anti-FLAG M2 affinity gel 2 h at 4°C, eluted with FLAG peptide, TMT labelling, LC-MS/MS (n = 3).

These are yes or no findings as the source states them, for the method shown. In cells and extracts the contact can be indirect. These calls come from enrichment with a bait or labelling near it, and not all partners need be listed. Tags and fused reporters may be left off the sequences shown.

Regarding “AFG3L2 (endogenous) (from UniProt Q9Y4W6 67-797) (enzyme)”, the binding result is given as “binds”.
